From patent publication EP4713370A2
No constants are given. Whether binding was seen depends on the method and setting. Some binding calls cover weakened binding; strength is not graded here.

Protein sequences, listed by entry. Tags and fused reporters are not part of them. Lines headed by an entry give the natural chain unless they say otherwise; changes in a name come on top.
UniProt O76036: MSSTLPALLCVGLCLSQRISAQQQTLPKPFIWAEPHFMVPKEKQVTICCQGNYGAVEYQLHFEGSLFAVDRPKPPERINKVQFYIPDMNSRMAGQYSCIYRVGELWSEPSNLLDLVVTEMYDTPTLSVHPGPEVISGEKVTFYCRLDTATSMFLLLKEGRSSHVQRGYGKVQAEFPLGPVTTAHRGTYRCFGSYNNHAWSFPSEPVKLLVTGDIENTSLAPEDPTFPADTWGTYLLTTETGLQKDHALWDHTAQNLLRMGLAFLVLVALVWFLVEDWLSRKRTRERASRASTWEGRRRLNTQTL

B1: IP-46-3 (antibody, human IgG1, kappa, V domains shown)
VH: EVQLQQSGPELVKPGASVKISCKTSGYTFTEYTMHWVKQSHGKSLEWIGGISPNIGGTSYNQKFKGKATLTVDKSSSTAYMELRSLTSEDSAVYYCARRGGSFDYWGQGTTLTVSS
VL: DIVMTQSPATLSVTPGDRVSLSCRASQSISDYLHWYQQKSHESPRLLIKYASQSISGIPSRFSGSGSGSDFTLSINSVEPEDVGVYYCQNGHSFPLTFGAGTKLELKR
B2: h3-7 (antibody, IgG1, V domains shown)
VH: EQQLLESGGGLVQPGGSLRLSCAASGFSPSSYYMSWVRQAPGKCLEWIGIIFSGGSTWYASWAKGRFTISKDSSKNTVYLQMNSLRAEDTAVYFCARGDAVGSGYWGLWGPGTLVTVSS
VL: DVQMTQSPSTLSASVGDRVTITCQASQDIYIYLAWYQQKPGKPPKLLMYSASTLASGVPSRFSGSGSGTEFTLTISSLQPDDFATYFCQSYDGTSNTGFGCGTKVEIK
B3: h5-13 (antibody, IgG1, V domains shown)
VH: EQQLLESGGGLVQPGGSLRLSCAASGFSLSSYHMSWVRQAPGKCLEWIGYILANTDSYYANWAKGRFTISKDSSKNTVYLQMNSLRAEDTAVYFCARYDNHDAAYSTLWGPGTLVTVSS
VL: DVQMTQSPSTLSASVGDRVTITCQASQSISTALAWYQQKPGKPPKLLMYKASTLASGVPSRFSGSGSGTEFTLTISSLQPDDFATYFCQQGYSRSNVDNVFGCGTKVEIK
B4: h6-1 (antibody, IgG1, V domains shown)
VH: EQQLLESGGGLVQPGGSLRLSCAASGFSFSSSAWICWVRQAPGKCLEWIGCINTVSVNAYYASWAKGRFTISKDSSKNTVYLQMNSLRAEDTAVYFCARNPYNSLRLWGPGTLVTVSS
VL: DVQMTQSPSTLSASVGDRVTITCQASENIYSSLAWYQQKPGKPPKLLMYDVSDLASGVPSRFSGSGSGTEFTLTISSLQPDDFATYFCLGGYPSNNYRMAFGCGTKVEIK

Legend:
[1] = molecular target: Recombinant human NKp46, His Tag (human NKp46 ECD antigen, aa. 22-254, his-tagged) (human) (UniProt O76036); test: SPR (Biacore 8K+), antibody captured on protein A chip, NKp46-His as analyte, 1:1 fit
[2] = molecular target: Recombinant human NKp46, His Tag (human NKp46 ECD antigen, aa. 22-254, his-tagged) (human) (UniProt O76036); test: ELISA on coated NKp46-His, and BLI with antibody on anti-human IgG Fc probe and 11 nM NKp46-His

Binder	binding [1]	binding [2]
B1	binds	–
B2	–	binds
B3	–	binds
B4	–	binds
